Values from PubChem BioAssay AID1508597 (Cure First, 2020)

Assay: 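Knock-downs altering ovarian cancer cell survival with or without PARP inhibitor rucaparib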 (primary screen)
Cell system: human ovarian carcinoma lines grown from tumours: OCI-P5x (papillary serous) and OCI-C5x (clear cell)
Knock-down reagent: siRNA pool against human genes, 1.25 pmol siRNA per well
Time to read-out: 72 h or 96 h, depending on the cell culture
Challenge: rucaparib 20 µM (about IC30) or vehicle, present until read-out
Detection: 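Luminescent ATP-based viability assay read 72 or 96 h after transfection, depending on culture, given as normalised percent viability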
Reading the numbers: viability, normalised: higher = more viable cells remaining
Hit rule: 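a well counts as a hit if its normalised viability is under 80 percent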
Meaning of the calls: active = viability under 80%; inactive = viability 80% or more
This is one part, drawn at random, of about 2,100 reagents tested. 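Calls flag viability under 80% in either arm, not effects specific to rucaparib; the reference for percent is not stated.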 Entries without a mark were called inactive. The record does not give: the 100% reference.

| Target gene | rucaparib or vehicle | cell line | technical replicate | viability, normalised (%) |
| --- | --- | --- | --- | --- |
| RRM1 | Rucaparib | OCI-C5x (clear cell) | 1 | 34.3 (active) |
| RRM1 | Rucaparib | OCI-C5x (clear cell) | 2 | 33 (active) |
| RRM1 | Rucaparib | OCI-C5x (clear cell) | 3 | 35.3 (active) |
| RRM1 | Rucaparib | OCI-P5x (serous) | 1 | 64.8 (active) |
| RRM1 | Rucaparib | OCI-P5x (serous) | 2 | 78.3 (active) |
| RRM1 | Rucaparib | OCI-P5x (serous) | 3 | 57.7 (active) |
| RRM1 | Vehicle | OCI-C5x (clear cell) | 1 | 28.5 (active) |
| RRM1 | Vehicle | OCI-C5x (clear cell) | 2 | 27.3 (active) |
| RRM1 | Vehicle | OCI-C5x (clear cell) | 3 | 19.2 (active) |
| RRM1 | Vehicle | OCI-P5x (serous) | 1 | 49.2 (active) |
| RRM1 | Vehicle | OCI-P5x (serous) | 2 | 48.3 (active) |
| RRM1 | Vehicle | OCI-P5x (serous) | 3 | 41.4 (active) |
| PDCD10 | Rucaparib | OCI-C5x (clear cell) | 1 | 51.9 (active) |
| PDCD10 | Rucaparib | OCI-C5x (clear cell) | 2 | 61.2 (active) |
| PDCD10 | Rucaparib | OCI-C5x (clear cell) | 3 | 49.9 (active) |
| PDCD10 | Rucaparib | OCI-P5x (serous) | 1 | 91.5 |
| PDCD10 | Rucaparib | OCI-P5x (serous) | 2 | 82.1 |
| PDCD10 | Rucaparib | OCI-P5x (serous) | 3 | 95.4 |
| PDCD10 | Vehicle | OCI-C5x (clear cell) | 1 | 67.4 (active) |
| PDCD10 | Vehicle | OCI-C5x (clear cell) | 2 | 63.7 (active) |
| PDCD10 | Vehicle | OCI-C5x (clear cell) | 3 | 46.4 (active) |
| PDCD10 | Vehicle | OCI-P5x (serous) | 1 | 89.2 |
| PDCD10 | Vehicle | OCI-P5x (serous) | 2 | 92.3 |
| PDCD10 | Vehicle | OCI-P5x (serous) | 3 | 74.3 (active) |

7 of these entries in another layout:
{"Target gene": "RRM1", "rucaparib or vehicle": "Rucaparib", "cell line": "OCI-C5x (clear cell)", "technical replicate": "3", "viability, normalised (%)": "35.3 (active)"}
{"Target gene": "RRM1", "rucaparib or vehicle": "Rucaparib", "cell line": "OCI-P5x (serous)", "technical replicate": "1", "viability, normalised (%)": "64.8 (active)"}
{"Target gene": "RRM1", "rucaparib or vehicle": "Rucaparib", "cell line": "OCI-P5x (serous)", "technical replicate": "2", "viability, normalised (%)": "78.3 (active)"}
{"Target gene": "RRM1", "rucaparib or vehicle": "Rucaparib", "cell line": "OCI-P5x (serous)", "technical replicate": "3", "viability, normalised (%)": "57.7 (active)"}
{"Target gene": "RRM1", "rucaparib or vehicle": "Vehicle", "cell line": "OCI-C5x (clear cell)", "technical replicate": "1", "viability, normalised (%)": "28.5 (active)"}
{"Target gene": "RRM1", "rucaparib or vehicle": "Vehicle", "cell line": "OCI-C5x (clear cell)", "technical replicate": "2", "viability, normalised (%)": "27.3 (active)"}
{"Target gene": "RRM1", "rucaparib or vehicle": "Vehicle", "cell line": "OCI-C5x (clear cell)", "technical replicate": "3", "viability, normalised (%)": "19.2 (active)"}

Next reagents follow:
| Target gene | rucaparib or vehicle | cell line | technical replicate | viability, normalised (%) |
| --- | --- | --- | --- | --- |
| TNF | Rucaparib | OCI-C5x (clear cell) | 1 | 26.4 (active) |
| TNF | Rucaparib | OCI-C5x (clear cell) | 2 | 34.5 (active) |
| TNF | Rucaparib | OCI-C5x (clear cell) | 3 | 28.9 (active) |
| TNF | Rucaparib | OCI-P5x (serous) | 1 | 50 (active) |
| TNF | Rucaparib | OCI-P5x (serous) | 2 | 36.3 (active) |
| TNF | Rucaparib | OCI-P5x (serous) | 3 | 36.7 (active) |
| TNF | Vehicle | OCI-C5x (clear cell) | 1 | 35.1 (active) |
| TNF | Vehicle | OCI-C5x (clear cell) | 2 | 54.8 (active) |
| TNF | Vehicle | OCI-C5x (clear cell) | 3 | 29.6 (active) |
| TNF | Vehicle | OCI-P5x (serous) | 1 | 50.7 (active) |
| TNF | Vehicle | OCI-P5x (serous) | 2 | 61.3 (active) |
| TNF | Vehicle | OCI-P5x (serous) | 3 | 55.8 (active) |
| ACIN1 | Rucaparib | OCI-C5x (clear cell) | 1 | 42.1 (active) |
| ACIN1 | Rucaparib | OCI-C5x (clear cell) | 2 | 55.9 (active) |
| ACIN1 | Rucaparib | OCI-C5x (clear cell) | 3 | 38.3 (active) |
| ACIN1 | Rucaparib | OCI-P5x (serous) | 1 | 52.5 (active) |
| ACIN1 | Rucaparib | OCI-P5x (serous) | 2 | 59.2 (active) |
| ACIN1 | Rucaparib | OCI-P5x (serous) | 3 | 54.3 (active) |
| ACIN1 | Vehicle | OCI-C5x (clear cell) | 1 | 51.5 (active) |
| ACIN1 | Vehicle | OCI-C5x (clear cell) | 2 | 50.8 (active) |
| ACIN1 | Vehicle | OCI-C5x (clear cell) | 3 | 29 (active) |
| ACIN1 | Vehicle | OCI-P5x (serous) | 1 | 46.2 (active) |
| ACIN1 | Vehicle | OCI-P5x (serous) | 2 | 46.9 (active) |
| ACIN1 | Vehicle | OCI-P5x (serous) | 3 | 55.7 (active) |
